Laboratory results reported in US20110052587A1.
These are yes or no findings as the source states them, for the method shown. Some binding calls cover weakened binding; strength is not graded here.

Sequences of proteins named here, by UniProt entry; tags and fusion partners are left off. A change or cut given only in a name is not applied to a line headed by its entry.
UniProt P10747: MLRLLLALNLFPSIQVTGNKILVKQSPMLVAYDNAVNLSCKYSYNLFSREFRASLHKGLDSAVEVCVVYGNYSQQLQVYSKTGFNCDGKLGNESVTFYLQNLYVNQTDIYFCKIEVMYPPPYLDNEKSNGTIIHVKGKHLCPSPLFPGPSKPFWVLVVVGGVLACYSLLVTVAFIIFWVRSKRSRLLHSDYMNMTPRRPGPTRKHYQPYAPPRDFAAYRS

Key:
human CD28 (human) [1] = target: human CD28 (human) (UniProt P10747); test: binding tests of FIG. 5
human CD28 (human) [2] = target: human CD28 (human) (UniProt P10747); test: hybridoma screen on transfected L929 cells
human CD28 (human) [3] = target: human CD28 (human) (UniProt P10747); test: binding to cells expressing the construct, FIG. 5
human CD28 (human) [4] = target: human CD28 (human) (UniProt P10747); test: flow cytometry, titration on human PBMC gated on CD4 T lymphocytes, FIG. 4a

Measured: binding

B1: mAb 9D7 (antibody, V domains shown)
VH: DVQLQESGPGLVKPSQSLSLTCTVTGYSITSDYAWNWIRQFPGNKLEWMGYIRYSGSTSYNPSLKSRISITRDTSKNQFFLQLNSVTTEDTATYYCARDWPRPSYWYFDVWGAGTTVTVSS
VL: DIQTTQTTSSLSASLGDRVTISCRAGQDISNYLNWYQQKPDGTVKLLIYYTSRLHSGVPSRFSGSGSGTDYSLTISNLEQEDIATYFCQQGHTLPWTFGGGTKLEIK
binds: all assays above
